Results on one sequence are retold here after publication PMC3547035.

Chains of the proteins cited; added tags and fusions are not shown. A line that says so, or that is headed by a name, gives the form on record, which may keep a tag or linker.
VEGF121 (Homo sapiens), one chain, as listed by the source: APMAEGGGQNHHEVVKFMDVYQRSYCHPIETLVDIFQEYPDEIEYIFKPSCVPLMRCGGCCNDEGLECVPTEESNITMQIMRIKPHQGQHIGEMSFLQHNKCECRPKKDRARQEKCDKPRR
VEGF165 (Homo sapiens), one chain, as listed by the source: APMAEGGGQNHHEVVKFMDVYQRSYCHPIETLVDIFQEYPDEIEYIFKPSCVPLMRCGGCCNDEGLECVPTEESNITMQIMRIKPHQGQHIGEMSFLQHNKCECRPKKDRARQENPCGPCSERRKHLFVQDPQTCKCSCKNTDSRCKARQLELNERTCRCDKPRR

For one series, the system named is VEGF121 (Homo sapiens). As to the kind of experiment: SPR. The note with it: SPR BIAcore 2000, CM5 chip, immobilized protein ~200 RU, PBS + Tween-20 running buffer (pH not stated), 25 C, aptamer 0.2-100 nM, 1:1 Langmuir fit; recombinant protein; protein details: carrier free; single-stranded DNA. (In SPR one partner is held on a chip, and binding of the other changes the refractive index at the surface.)

Another series has as its system VEGF165 (Homo sapiens). Nature of the series: SPR. The note with it: SPR BIAcore 2000, CM5 chip, immobilized protein ~200 RU, PBS + Tween-20 running buffer (pH not stated), 25 C, aptamer 0.2-100 nM, 1:1 Langmuir fit; recombinant protein; protein details: carrier free; single-stranded DNA.

For at least one entry, the source does not settle the construct or the ends of the probe.

By Kd is commonly meant the free concentration of one partner at which half of the binding sites on the other are occupied at equilibrium, for simple one-to-one binding. On to “CAATTGGGCCCGTCCGTATGGTGGGT [Unmodified SL2-B]”, for which the dissociation constant (Kd) turned out to be 10 µM in the series with VEGF121 (Homo sapiens) and 0.0005 µM in the series on VEGF165 (Homo sapiens).
